Measurements published in PubChem BioAssay AID2810 (NMMLSC, 2010).
This is one part of the list. Further columns of the screen follow, without active or inactive calls.

Test: modulators of CD8 T cell-vesicle binding, confirmation, cherry-picked primary hits, two concentrations (AID 2810);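 also: lower values mean blocking of vesicle binding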;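 as to percent response (vesicle binding): ratio of mean FL2 vesicle stain of CD8+ cells to that row's control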
Settings: 2C CD8+ T cell-vesicle binding, flow cytometry; for double positive events: CD8+/vesicle+ events
[1] = at 15.4 µM, stronger effect = lower value

Compound	double positive events (at 7.7 µM) [%]	double positive events [1] [%]	percent response (vesicle binding) (at 7.7 µM) [%]
COc1ccc(C(C)NC(=O)c2ccccc2Cl)cc1OC (stereo not drawn)	21.3	13.6	195
CC(C)CC1C(C#N)=C(N)Oc2n[nH]c(-c3ccccc3)c21 (stereo not drawn)	10.6	26.4	334
CCCc1cc(=O)oc2cc(OCC(=O)Nc3cc(C)on3)ccc12	34.5	14.5	318
COc1ccc(C)cc1S(=O)(=O)NNc1nc(C)cc(C)n1	39.5	6.5	630
O=C(Cc1ccc(Cl)cc1)OCC(=O)N1CCCCCC1	9.5	25.9	131
COc1ccc(C(=O)N/N=C(\C)Cn2cnc([N+](=O)[O-])n2)cc1	48.3	9.8	357
COc1ccc(N=c2oc3ccc(OC)cc3cc2-c2nc3ccccc3[nH]2)cc1	15.2	7.8	129
CC1(C)SC[C@H](C(=O)Nc2cccc(Cl)c2)N1C=O	22.8	39.4	311
S=C(NC1CCCCC1)N1CCc2[nH]c3ccccc3c2C1	20.2	20.3	242
O=C1OC(Cc2ccccn2)C(O)=C1C1=NCCCN1 (stereo not drawn)	13.2	11.7	516
O=C(C1CCCO1)N1CCN(c2c3c(nc4cc(-c5ccc(F)cc5)nn24)CCC3)CC1 (stereo not drawn)	24.5	15.1	174
O=C(CC12CC3CC(CC(C3)C1)C2)N/N=C/c1ccc([N+](=O)[O-])o1	16.6	3.3	142
COc1ccc(C(=O)N2CCOC2CNC(=O)C(=O)NCc2ccc(F)cc2)cc1 (stereo not drawn)	13.9	12.2	179
CCCn1c(SCC(=O)NCc2ccc3c(c2)OCO3)n[nH]c1=O	11	17.5	421
CC(=O)c1ccc(N2CCN(S(=O)(=O)c3cc4[nH]c(=O)c(=O)[nH]c4cc3C)CC2)cc1	7.8	20.8	171
Cn1c(=O)c2cc(S(=O)(=O)NCCC(=O)NC3CCCCCC3)ccc2n(C)c1=O	12	21.1	140
C=CCOC(=O)C1C(=O)CC(C)(O)C(C(=O)OCC=C)C1c1ccc(N(C)C)cc1 (stereo not drawn)	22.4	21	232
CCn1cc(C(=O)N2CCOCC2)c(=O)c2cc(S(=O)(=O)N(C)C3CCCCC3)ccc21	11.1	15.1	199
O=[N+]([O-])c1ccc(Sc2ccccn2)nc1	20.7	12.7	379
CC1CCc2c(sc(NC(=O)Cn3nc(C(F)(F)F)c4c3CCCCC4)c2C#N)C1 (stereo not drawn)	14.7	24	232
Cc1cccc(NS(=O)(=O)c2c(C)noc2C)c1	8.7	6.9	139

Compound	double positive events (at 7.7 µM) [%]	double positive events [1] [%]	percent response (vesicle binding) (at 7.7 µM) [%]
CN1CCC(=NNC(=O)c2ccc(N(Cc3ccccc3Cl)S(C)(=O)=O)cc2)CC1	14.9	26.5	167
CCN(CC)CCNC(=O)c1ccc(NC(=O)c2ccc(C(=O)c3ccccc3)cc2)cc1	18.1	35.8	275
CCn1nccc1C(=O)Nc1cc(Cl)cc(Cl)c1	6	18.5	120
O=S(=O)(Cc1ccc(Cl)cc1)NCC1CCCO1 (stereo not drawn)	31.6	10.5	411
CC(C)(C)OC(=O)N[C@H](C(=O)OC(C)(C)C)c1ccc2c(c1)OCO2	27.9	6.3	168
Cc1cc(C)n(C(=O)Cc2cn3ccsc3n2)n1	38.2	18.2	282
O=C(CSc1ccc(-c2cccs2)nn1)N1CCCCCC1	21.4	29.4	211
CC(NC(=O)COC(=O)C1CC2CCCC(C1)C2=O)c1ccccc1 (stereo not drawn)	10.8	10.4	274
O=C(Cc1ccc(S(=O)(=O)N2CCOCC2)s1)Nc1ccc(S(=O)(=O)N2CCCCC2)cc1	24.7	33.7	230
CN(Cc1ccccc1)C(=O)c1nc[nH]c1C(=O)N1CCN(c2ccccc2)CC1	16.6	27.9	122
CSc1nc2cc(C)nn2c(-c2ccccc2Cl)c1C#N	16.8	15.5	412
Cn1c(=O)oc2cc(S(=O)(=O)NCc3ccccc3)ccc21	28.2	10.3	269
COc1ccc(NS(=O)(=O)c2ccc(-c3ccccn3)s2)cc1	10.4	30.6	439
O=C(NC1CCCC1)C1CCCN1C(=O)Nc1ccc(Cl)cc1 (stereo not drawn)	17.3	13	225
CN(CC(=O)NCc1ccc2c(c1)OCO2)CC(=O)Nc1ccc(F)c(F)c1F	10.4	22	126
CCOc1ccc(NC(=O)CN(C)C(=O)c2ccc(N3CCOCC3)c([N+](=O)[O-])c2)cc1OCC	18.2	10.1	152
Nn1c(SCC(=O)Nc2c(F)cc(F)cc2Br)nnc1C1CCCCC1	18.2	6.6	162
CC(OC(=O)C1CC1)C(=O)Nc1cc(Cl)cc(Cl)c1 (stereo not drawn)	39.8	23	280
COc1ccc(OC)c(/C=C/C(=O)Nc2cccc(S(=O)(=O)NC3=NCCCCC3)c2)c1	16.3	13	140
O=C(c1cc(-c2ccncc2)nc2ccccc12)N1CCN(c2ncccn2)CC1	13.2	30.8	202
CCCCOc1ccc(C(=O)NCC(=O)N2CCN(C(=O)c3ccco3)CC2)cc1	9.9	24.1	252

Compound	double positive events (at 7.7 µM) [%]	double positive events [1] [%]	percent response (vesicle binding) (at 7.7 µM) [%]
O=C(C1CCN(S(=O)(=O)c2cnc[nH]2)CC1)N1CCN(c2ncccn2)CC1	10	42.9	303
O=C(CNS(=O)(=O)c1ccc(Cl)c(C(F)(F)F)c1)NC1CCCCCC1	40.1	31	221
CCCCOC(=O)c1ccc(NC(=O)C(=O)NCc2ccncc2)cc1	20.5	27.2	192
Cc1cc(C)c2c(n1)sc1c(-c3ccccc3)c(C#N)c(N)nc12	9.7	23.9	183
COc1ccc(CN(C)C(=O)CNC(=O)c2cccs2)c(OC)c1	9.5	26.5	77.5
CN(c1ccccc1)S(=O)(=O)c1cccc(NC(=O)c2cccc(C#N)c2)c1	35.2	26.7	383
COc1ccc(C(=O)NCC(O)COc2ccc(C(C)(C)C)cc2)cc1[N+](=O)[O-] (stereo not drawn)	23.1	11.7	183
CCOc1ccccc1N1CCN(C(=O)c2ccc3[nH]c(C)c(C)c3c2)CC1	25.6	17.4	277
CC1CCc2c(C(=O)Nc3ccc(OC(F)(F)F)cc3)csc2C1 (stereo not drawn)	33.5	20.5	215
Cc1c(OCC(=O)NC(Cc2ccc(Cl)cc2)C(=O)O)ccc2c(-c3ccccc3)cc(=O)oc12 (stereo not drawn)	11.8	8.2	158
COCCCn1c(=O)c2ccccc2n(Cc2ccc(C)cc2)c1=O	8.9	23	240
CC1CCCCC1NC(=O)CSc1nnc(N)s1 (stereo not drawn)	32.6	30.5	214
Cc1ccc(Cn2c([N+](=O)[O-])cnc2C)cc1	10.7	31.2	283
Cc1ccc2c(Cl)cc(Cl)c(OCC(=O)OCC(=O)Nc3ccc(C#N)cc3)c2n1	31.8	1.1	462
Cc1cc([N+](=O)[O-])cc2c1NC(=O)C2(O)N1CCCCCC1 (stereo not drawn)	21.7	15	132
CC(C)(C)Nc1nc2nonc2nc1NC(C)(C)C	8	6.1	322
Cc1nc(N2CCN(S(=O)(=O)c3ccccc3C#N)CC2)c2c(-c3ccccc3)csc2n1	25	22.6	204
Cc1c(OCC(=O)NCc2ccccn2)ccc2c(-c3ccccc3)cc(=O)oc12	7.2	29.8	130
CNC(=O)c1cc(C(=O)c2ccc(F)cc2C(F)(F)F)c[nH]1	23.5	17	212
C=CCN=C1S/C(=C\c2ccc(Cl)cc2)C(=O)N1CC=C	10.4	16.4	251
COc1ccc(Oc2ccc(N/C=C3\CCCC3=O)cc2)cc1	10.4	8.8	429

Compound	double positive events (at 7.7 µM) [%]	double positive events [1] [%]	percent response (vesicle binding) (at 7.7 µM) [%]
CC(C)=CC(=O)OCC(=O)NC1CCCc2ccccc21 (stereo not drawn)	19.9	20.7	546
CCOC(=O)CCNC(=O)Nc1ccc2nc(C)n(Cc3cccc(Cl)c3)c(=O)c2c1	10	23.8	287
Cc1ccc(C(=O)Nc2ccc(N3CCN(S(C)(=O)=O)CC3)cc2)cc1	8.9	25.8	297
COc1ccc(S(=O)(=O)N2CCCCC2)cc1NC(=O)c1cnc(C)cn1	15.3	6.4	75.9
Cc1c(C(=O)NCc2ccco2)sc2nc(-c3ccccc3)cn12	11.5	22.2	204
COc1ccc(/C=C2\SC(=S)N(CCC(=O)N3CCOCC3)C2=O)cc1	8.6	22.8	156
CN(C)CCNC(=O)C(=O)Nc1ccc2c(c1)N(S(=O)(=O)c1cccs1)CCC2	11.6	31.8	405
Cn1c(=O)cc(SCC(=O)NCCC2=CCCCC2)c2ccccc21	11.1	31.2	101
Cc1nn(Cc2ccc(Cl)cc2)c(C)c1N	10.5	36.2	440
Cc1nnnn1CC(=O)Nc1cccc([N+](=O)[O-])c1	24.2	11.2	356
CN1CCN(c2nc(-c3ccccc3)ncc2S(C)(=O)=O)CC1	26.4	13.9	104
O=C(OCC(=O)N1CCN(C(=O)c2ccco2)CC1)c1ccccc1Cc1ccccc1	6.5	29.4	106
CCC(C)NC(=O)c1cn(CC)c2ccc(S(=O)(=O)N(C)C)cc2c1=O (stereo not drawn)	32.9	8.6	143
Cc1ccc(S(=O)(=O)NC(CC(=O)NCC2CCCO2)c2ccccc2)cc1 (stereo not drawn)	22.3	27.9	331
O=C(Cc1ccccc1)Nc1cc2c(cc1Cl)OCCCO2	11.1	14.3	210
Cc1ccc(OCCOC(=O)c2cc(S(=O)(=O)N3CCCCC3)ccc2N2CCOCC2)cc1	12.7	26.3	569
O=S(=O)(c1ccc(F)cc1)N1CCC(O)(c2ccc3c(c2)OCO3)CC1	34.6	22.2	482
CCOc1ccc(-c2cc(CCCC(=O)NCCc3ccccc3)no2)cc1	11	24.5	182

6 structures from above, arranged by molar mass, descending:
Compound	double positive events (at 7.7 µM) [%]	double positive events [1] [%]	percent response (vesicle binding) (at 7.7 µM) [%]
CCOC(=O)CCNC(=O)Nc1ccc2nc(C)n(Cc3cccc(Cl)c3)c(=O)c2c1	10	23.8	287
CCCCOc1ccc(C(=O)NCC(=O)N2CCN(C(=O)c3ccco3)CC2)cc1	9.9	24.1	252
O=C(c1cc(-c2ccncc2)nc2ccccc12)N1CCN(c2ncccn2)CC1	13.2	30.8	202
COc1ccc(C)cc1S(=O)(=O)NNc1nc(C)cc(C)n1	39.5	6.5	630
CC(OC(=O)C1CC1)C(=O)Nc1cc(Cl)cc(Cl)c1 (stereo not drawn)	39.8	23	280
CCn1nccc1C(=O)Nc1cc(Cl)cc(Cl)c1	6	18.5	120
